# Data as given in PubChem BioAssay AID1259354 (Paczesny and Yang Labs, IUPUI and University of Michigan, 2018).
# By UniProt entry, the sequences of proteins in these tests, tags left out. Where a name states a change or a piece, a line headed by the entry shows the natural chain unless it says otherwise.
# UniProt Q01638: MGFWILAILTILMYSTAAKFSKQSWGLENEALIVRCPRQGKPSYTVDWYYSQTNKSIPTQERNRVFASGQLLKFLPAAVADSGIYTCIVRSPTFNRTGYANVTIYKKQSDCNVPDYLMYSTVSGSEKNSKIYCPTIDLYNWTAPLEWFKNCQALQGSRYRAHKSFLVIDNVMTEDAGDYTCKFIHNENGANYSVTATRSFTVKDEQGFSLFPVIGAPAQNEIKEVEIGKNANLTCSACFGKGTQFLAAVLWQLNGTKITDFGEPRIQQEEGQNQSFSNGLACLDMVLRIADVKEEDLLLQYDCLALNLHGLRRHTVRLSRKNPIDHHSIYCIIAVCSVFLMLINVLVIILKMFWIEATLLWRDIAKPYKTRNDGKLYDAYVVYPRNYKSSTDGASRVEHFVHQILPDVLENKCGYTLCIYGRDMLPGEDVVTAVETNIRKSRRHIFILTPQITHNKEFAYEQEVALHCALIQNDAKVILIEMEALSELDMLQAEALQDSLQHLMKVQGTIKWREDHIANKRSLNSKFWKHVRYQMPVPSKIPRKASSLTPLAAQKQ
# Screen size: about 78,000 compounds; about 1,800 (2.3%) were called active. The inconclusive results got no clear call from the source; some entries with a clear call stand among them for comparison. No stated cut-off is given here; in the data, active means inhibition above about 30%; inconclusive means mostly about 10% to 28%; inactive means weaker than that.
# Molecular target: Interleukin-1 receptor-like 1 (Homo sapiens) (UniProt Q01638)
# Assay: blocks human ST2 binding to IL-33, primary screen, biochemical, AlphaLISA (AID 1259354)
# Conditions: AlphaLISA ST2-Fc/biotin-IL-33 interaction, 1 h; at 17 µM, active compounds read high
row,SMILES,inhibition
1,Cc1ccc(-n2c(=O)n(Cc3ccccc3)c3c(C(N)=O)nc(-c4ccccc4C)nc32)cc1C,inactive
2,O=C(NCCN1CCCC1)C1CCC(=O)N1Cc1ccccc1Cl (centres undefined),inconclusive: 19%
3,Cc1cc(C)c(NC(=O)CN2CCN(Cc3ccc(F)cc3Cl)S2(=O)=O)c(C)c1,inconclusive: 12%
4,N#Cc1ccc(C(=O)Nc2ccc(-c3nc4ccccc4s3)cc2)cc1,active: 32%
5,Cn1c(=O)c2c(nc3n(-c4ccc5c(c4)OCCO5)c(-c4ccccc4)cn23)n(C)c1=O,inactive
6,O=C(NCCCN1CCOCC1)c1cc(-c2ccc(Cl)s2)nc2ccccc12,inconclusive: 15%
7,O=C1c2cccnc2CN1Cc1cc(-c2ccco2)on1,inactive
8,Cc1cc(C)n2ncc(CN3CCC(n4cc(CCO)nn4)CC3)c2n1,inconclusive: 12%
9,CC(=O)Nc1ccsc1C(=O)N1CCCC(N(C)Cc2ccccc2)C1 (centres undefined),inactive
10,COCCn1c(CNC(=O)Cc2ccc(F)cc2)nc2cccnc21,inconclusive: 13%
11,CN1C[C@@H](NC(=O)c2cncnc2)C[C@H]1c1nc(-c2ccncc2)no1,inconclusive: 11%
12,CN(CC[C@H]1CN(C(=O)NC2CCCCC2)CC[C@H]1CC(=O)O)c1ccccc1,inconclusive: 14%
13,CN1C(C(=O)Nc2ccccn2)=C(O)c2ccccc2S1(=O)=O,inconclusive: 19%
14,O=S1(=O)CCC(S(=O)(=O)N2CCOCC2)C1 (centres undefined),inactive
15,CCCOC(=O)C1=C(C)NC2=C(C(=O)C(C(=O)OC)C(C)C2)C1c1ccc(O)cc1 (centres undefined),inactive
16,Cc1ccc(Oc2c(F)c(F)nc(N3CCCC3)c2F)cc1,inconclusive: 12%
17,Cc1cc(N(C)C)nc(Nc2ccc(NC(=O)c3ccccc3)cc2)n1,inconclusive: 18%
18,COc1ccc(Cl)cc1NC(=O)CCCn1cnc([N+](=O)[O-])n1,inconclusive: 11%
19,c1cnn(CC2(CNC3CCN(c4ccc5c(c4)OCO5)CC3)CC2)c1,inconclusive: 10%
20,COc1ccc(O[C@@H]2C=C(C(=O)N[C@@H](Cc3ccc(O)cc3)C(N)=O)C[C@@H](O)[C@H]2O)cc1,inconclusive: 14%
21,CSc1ccc(N=Cc2[nH]c3ccc(Br)c(Cl)c3c2O)cc1,inconclusive: 23%
22,O=C(CNCCN1CCOCC1)Nc1sc2c(c1C(=O)Nc1ccccc1)CCC2,inconclusive: 15%
23,Nc1cncc(-n2ccnc2-c2ccccn2)c1,inconclusive: 13%
24,CC(=O)Sc1nc(O)c(C=C2C=c3ccc(C)cc3=NC2=O)[nH]1,active: 31%

# Two records picked at random from those above, as already listed:
row,SMILES,inhibition
9,CC(=O)Nc1ccsc1C(=O)N1CCCC(N(C)Cc2ccccc2)C1 (centres undefined),inactive
6,O=C(NCCCN1CCOCC1)c1cc(-c2ccc(Cl)s2)nc2ccccc12,inconclusive: 15%

# (list continues)

row,SMILES,inhibition
1,COc1ccccc1Cn1c(CNS(=O)(=O)c2ccc(Cl)s2)nc2cccnc21,inconclusive: 20%
2,CCOC1=NC2Nc3ccc(Cl)cc3N(C)C2C1c1ccc([N+](=O)[O-])cc1 (centres undefined),active: 36%
3,c1cc(CN2CCOCC2)cc(-c2ccc(NC3CCCC3)nn2)c1,inconclusive: 10%
4,CC1CCCCN1C1CN(C(=O)CCC(=O)Nc2cccc(O)c2)C1 (centres undefined),inactive
5,COCCCNC(=O)c1cc2c(=O)n3cccc(C)c3nc2n(C(C)C)c1=N,inconclusive: 10%
6,c1cc2c(cc1CN1CCCCC1)OCO2,inconclusive: 12%
7,O=C(O)CCc1ccc(-c2cccs2)n1CC(=O)O,inconclusive: 13%
8,Cc1ccccc1-n1cc(Cn2ccnc2-c2ccccc2C(=O)O)cn1,inactive
9,Cc1cc(N(C)C)nc(Nc2ccc(NC(=O)CCC3CCCC3)cc2)n1,inactive
10,Cn1c(SCC(=O)NCc2ccco2)nc2c([nH]c3ccccc32)c1=O,inconclusive: 20%
11,OCCN1CCN(CCSc2ccccc2)CC1,inconclusive: 10%
12,CCNc1nc(OCC)nc(N2CCC(Cc3ccccc3)CC2)n1,inconclusive: 17%
13,COC(=O)C1=C(C)Nc2ncnn2C1c1ccc(OC)c(OC)c1 (centres undefined),inconclusive: 18%
14,COc1ccc(S(=O)(=O)N=C2C=CC(=O)c3ccccc32)cc1,active: 39%
15,CCCc1nc(C(=O)NCc2cccnc2-n2cncn2)cs1,inconclusive: 22%
16,O=C(c1cn2cc(Cl)ccc2n1)N1C[C@H]2C[C@H](O)[C@@H](O)C[C@H]2C1,inconclusive: 13%
17,COc1ccc(NC(=O)N2C[C@@H]3C[C@H](C2)c2c(NC(=O)c4ccco4)ccc(=O)n2C3)cc1,inconclusive: 14%
18,CC(C)CCn1c(CN(C)Cc2ccncn2)cnc1S(=O)(=O)C(C)C,inconclusive: 19%
19,CS(=O)(=O)c1ccc(CN2C[C@@H]3[C@H](C2)[C@H]2CC[C@@H]3O2)cc1,inconclusive: 11%
20,Cn1nc(-c2ccc(Cl)cc2)c2cc(C(=O)NCc3cccs3)sc21,inactive
21,COc1cc2c(cc1OC)C(C(=O)Nc1ccccn1)C1c3ccccc3CCN1C2=O (centres undefined),inactive
22,CC(=O)N1c2ccccc2NC2=C(C(=O)CC(C)(C)C2)C1c1ccc(Br)s1 (centres undefined),inactive
23,O=C(c1cc2ccccn2n1)N1CC(=O)N(CCc2ccccc2)C(=O)C1,inconclusive: 29%
24,O=C(Nc1ccc(Cl)cc1[N+](=O)[O-])c1ccc(Cl)cc1,inconclusive: 12%

# Filtered by structure, those above with an aryl thioether with sulfur outside any ring (3)
row,SMILES,inhibition
21,CSc1ccc(N=Cc2[nH]c3ccc(Br)c(Cl)c3c2O)cc1,inconclusive: 23%
10,Cn1c(SCC(=O)NCc2ccco2)nc2c([nH]c3ccccc32)c1=O,inconclusive: 20%
11,OCCN1CCN(CCSc2ccccc2)CC1,inconclusive: 10%

# The results go on.

row,SMILES,inhibition
1,CCc1nc(NCCN(CC)CC)c(C#N)c2c1COC(C)(C)C2,inconclusive: 15%
2,COc1cc2c(cc1OC)CN(C1CCCN(C(=O)c3cc(C)nc(C)n3)C1)CC2 (centres undefined),inconclusive: 13%
3,Cc1cc(C)n(-c2ccc(NC(=O)C3CCCCN3C(=O)c3cc(C)on3)cc2)n1 (centres undefined),inconclusive: 16%
4,CCc1ccc(NS(=O)(=O)CC)cc1,inconclusive: 15%
5,NC(=Nc1nc2ccccc2o1)NC(=O)/C=C/c1ccccc1,inconclusive: 17%
6,CSc1ccc(-c2nc(CSCC(=O)NC3CCCCC3C)c(C)o2)cc1 (centres undefined),inconclusive: 19%
7,Cc1cc2nc(Cc3cccc(F)c3)c(=O)n(C)c2cc1C,inactive
8,COc1ccccc1C1=NN(C(=O)CCC(=O)O)C(c2ccccc2Cl)C1 (centres undefined),inconclusive: 17%
9,CCOc1ccc(N2COc3ccc(F)cc3C2)cc1,inconclusive: 14%
10,Cc1ccc(-n2c(SCC(=O)Nc3cccc(Cl)c3)nc3c(c2=O)SCC3)cc1,active: 31%
11,CCOc1ccc(C(O)=Cc2nc3cc(S(=O)(=O)CC)ccc3oc2=O)cc1,inconclusive: 12%
12,Cc1nc2ccc(C(=O)N3[C@@H]4CC[C@H]3CNC(=O)C4)cc2nc1C,inconclusive: 16%
13,COC(=O)CN(C)Cc1cnc(S(C)(=O)=O)n1CC(C)C,inactive
14,Cc1ccccc1OCC(O)Cn1c(N2CCNCC2)nc2c1c(=O)n(C)c(=O)n2C (centres undefined),inactive
15,O=C(CC1C(=O)NCCN1Cc1ccoc1)NCCC1=CCCCC1 (centres undefined),inactive
16,COc1ccccc1/C=C/C1=NC(=C\c2cccc(Cl)c2)/C(=O)O1,active: 34%
17,Cc1ccc(C)c(OCC(=O)N2CCC(c3nnc4n3CCCCC4)CC2)c1C,inconclusive: 11%
18,COc1ccc(CCCNC(=O)c2ccc(-c3cccc4cccnc34)nc2)cc1,inconclusive: 12%
19,COC(=O)[C@@H]1C[C@@H](NC(=O)c2cc3cc(Cl)ccc3oc2=O)CN1C,inconclusive: 18%
20,Cc1ccc(-c2nc(C#N)c(NCc3ccccc3)o2)cc1,inconclusive: 12%
21,O=c1cc(-c2ccc(O)cc2)oc2cc(O)c([C@@H]3O[C@H](CO)[C@@H](O)[C@H](O)[C@H]3O[C@@H]3OC[C@H](O)[C@H](O)[C@H]3O)c(O)c12,inconclusive: 17%
22,COc1ccc(-c2nnc3n2N=C(c2cccc(Br)c2)CS3)cc1,inactive
23,CCn1c(CC2CCN(Cc3cc(C#CCO)cs3)CC2)n[nH]c1=O,inconclusive: 17%
24,O=C(CC(c1ccccc1)c1ccc(Cl)cc1)NCCc1cnccn1 (centres undefined),inactive

row,SMILES,inhibition
1,CCOC(=O)N1CCN(c2cc(C(C)C)nc(C)n2)CC1,inactive
2,O=C(CN1C(=O)CC(c2ccccc2)=Nc2ccccc21)Nc1cccc(F)c1,inactive
3,CC(C)c1ccc(C(=O)Nc2cccc(NC(=O)c3cccs3)c2)cc1,inconclusive: 15%
4,CN(Cc1cc(-c2ccccc2)no1)C(=O)c1ccc(CO)o1,inactive
5,O=S(=O)(Cc1noc([C@@H]2C[C@@H](O)CN2CC2CC2)n1)c1ccc(F)cc1,inactive
6,COc1cc(/C=C(\C#N)C(=O)c2ccc(O)c(O)c2)cc(I)c1O,inconclusive: 14%
7,CCOc1cc2c(cc1OCC)C(c1ccc(Br)cc1)OC(=O)C2 (centres undefined),inactive
8,Cc1ccc(CN2CCCC(CNC(=O)c3cccc(C(F)(F)F)c3)C2)s1 (centres undefined),inactive
9,N#C/C(=C\c1ccc(F)cc1)c1nc(C2CC2)cs1,active: 52%
10,O=C(c1ccccc1[N+](=O)[O-])N1CCN(C/C=C/c2ccccc2)CC1,inconclusive: 23%
11,O=C(NCc1ccccc1)c1cc(N2C(=O)C=CC2=O)ccc1Cl,inactive
12,CCOc1cc(C)c(S(=O)(=O)NCc2ccc3c(c2)OCO3)cc1C,inactive
13,c1cnc(N2CCOCC2)c(CNCc2cccn2-c2nccs2)c1,inactive
14,CC(C)CN(CCn1c(=O)oc2ccccc21)Cc1cnn(C)c1,inconclusive: 18%
15,COc1cc2c(cc1OC)CN(C1CCCN(Cc3cccc4cnccc34)C1)CC2 (centres undefined),inactive
16,COc1ccccc1-n1c(SC)nc2c(c1=O)SCC2,inconclusive: 13%
17,CCOc1ccc(NC(=O)CSc2nc3c(c(=O)n2-c2ccc(C)cc2)SCC3)cc1,inactive
18,O=C(Oc1ccccc1)N1CCN(c2ccc([N+](=O)[O-])cc2)CC1,inconclusive: 21%
19,CCOC(=O)C1(CCc2ccccc2)CCN(C(=O)c2cc(C(F)(F)F)[nH]n2)CC1,inconclusive: 18%
20,COc1ccccc1OC1CN(C(=O)c2ccc(-n3cnnc3)cc2)C1,inconclusive: 19%
21,N#Cc1ccc(Oc2ccc(C(=O)O)cc2)cc1C#N,inactive
22,CC(C)(C)c1csc(NC(=O)COc2ccccc2)n1,inconclusive: 17%
